Laboratory results: the supplement of paper PMC8728848
The list shows a part of the results.

Assays:
Assay in all cases: glycan array binding signal (z-score within array); higher = stronger binding
Settings in all cases: glycan notation: IUPAC condensed, linker removed
[1] = target: Neu5Ac(a2-3)Gal(b1-3)GlcNAc(b1-6)GalNAc
Procedure, shortened: (§1)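 Columns mapping to the same glycan were averaged after glycan names were converted to IUPAC-condensed notation. The data come from 3228 arrays in the Consortium for Functional Glycomics database, limited to those with an available protein sequence. Binding is reported as a within-array Z-score averaged across arrays of one protein sequence and across linkers.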

[2] = target: Neu5Ac(a2-3)Gal(b1-3)GlcNAc6S
Procedure, shortened: as §1

[3] = target: Neu5Ac(a2-3)Gal(b1-3)[Fuc(a1-4)]GlcNAc
Procedure, shortened: as §1

[4] = target: Neu5Ac(a2-3)Gal(b1-3)[Fuc(a1-4)]GlcNAc(b1-3)Gal(b1-3)[Fuc(a1-4)]GlcNAc
Procedure, shortened: as §1

[5] = target: Neu5Ac(a2-3)Gal(b1-3)[Fuc(a1-4)]GlcNAc(b1-3)Gal(b1-4)[Fuc(a1-3)]GlcNAc
Procedure, shortened: as §1

[6] = target: Neu5Ac(a2-3)Gal(b1-3)[GlcNAc(b1-6)]GalNAc
Procedure, shortened: as §1

[7] = target: Neu5Ac(a2-3)Gal(b1-3)[Neu5Ac(a2-6)]GalNAc
Procedure, shortened: as §1

[8] = target: Neu5Ac(a2-3)Gal(b1-3)[Neu5Ac(a2-6)]GlcNAc(b1-3)[Fuc(a1-3)[Gal(b1-4)]GlcNAc(b1-6)]Gal(b1-4)Glc
Procedure, shortened: as §1

[9] = target: Neu5Ac(a2-3)Gal(b1-3)]Neu5Ac(a2-3)Gal(b1-4)]GlcNAc
Procedure, shortened: as §1

Neu5Ac(a2-3)Gal(b1-4)Glc = target: Neu5Ac(a2-3)Gal(b1-4)Glc
Procedure, shortened: as §1

[10] = target: Neu5Ac(a2-3)Gal(b1-4)GlcNAc
Procedure, shortened: as §1

[11] = target: Neu5Ac(a2-3)Gal(b1-4)GlcNAc(b1-2)Man
Procedure, shortened: as §1

[12] = target: Neu5Ac(a2-3)Gal(b1-4)GlcNAc(b1-2)Man(a1-3)[GlcNAc(b1-4)][Neu5Ac(a2-3)Gal(b1-4)GlcNAc(b1-2)Man(a1-6)]Man(b1-4)GlcNAc(b1-4)GlcNAc
Procedure, shortened: as §1

[13] = target: Neu5Ac(a2-3)Gal(b1-4)GlcNAc(b1-2)Man(a1-3)[Neu5Ac(a2-3)Gal(b1-4)GlcNAc(b1-2)Man(a1-6)]Man(b1-4)GlcNAc(b1-4)GlcNAc
Procedure, shortened: as §1

[14] = target: Neu5Ac(a2-3)Gal(b1-4)GlcNAc(b1-2)Man(a1-3)[Neu5Ac(a2-3)Gal(b1-4)GlcNAc(b1-2)Man(a1-6)]Man(b1-4)GlcNAc(b1-4)[Fuc(a1-6)]GlcNAc
Procedure, shortened: as §1

[15] = target: Neu5Ac(a2-3)Gal(b1-4)GlcNAc(b1-2)Man(a1-3)[Neu5Ac(a2-6)Gal(b1-4)GlcNAc(b1-2)Man(a1-6)]Man(b1-4)GlcNAc(b1-4)GlcNAc
Procedure, shortened: as §1

[16] = target: Neu5Ac(a2-3)Gal(b1-4)GlcNAc(b1-2)[Neu5Ac(a2-3)Gal(b1-4)GlcNAc(b1-4)]Man(a1-3)[GlcNAc(b1-4)][Neu5Ac(a2-3)Gal(b1-4)GlcNAc(b1-2)[Neu5Ac(a2-3)Gal(b1-4)GlcNAc(b1-6)]Man(a1-6)]Man(b1-4)GlcNAc(b1-4)GlcNAc
Procedure, shortened: as §1

[17] = target: Neu5Ac(a2-3)Gal(b1-4)GlcNAc(b1-2)[Neu5Ac(a2-3)Gal(b1-4)GlcNAc(b1-4)]Man(a1-3)[GlcNAc(b1-4)][Neu5Ac(a2-3)Gal(b1-4)GlcNAc(b1-4)Man(a1-6)]Man(b1-4)GlcNAc(b1-4)GlcNAc
Procedure, shortened: as §1

[18] = target: Neu5Ac(a2-3)Gal(b1-4)GlcNAc(b1-2)[Neu5Ac(a2-3)Gal(b1-4)GlcNAc(b1-6)]Man(a1-6)[Neu5Ac(a2-3)Gal(b1-4)GlcNAc(b1-2)Man(a1-3)][GlcNAc(b1-4)]Man(b1-4)GlcNAc(b1-4)GlcNAc
Procedure, shortened: as §1

[19] = target: Neu5Ac(a2-3)Gal(b1-4)GlcNAc(b1-3)Gal
Procedure, shortened: as §1

[20] = target: Neu5Ac(a2-3)Gal(b1-4)GlcNAc(b1-3)Gal(b1-3)GlcNAc
Procedure, shortened: as §1

[21] = target: Neu5Ac(a2-3)Gal(b1-4)GlcNAc(b1-3)Gal(b1-4)GlcNAc
Procedure, shortened: as §1

[22] = target: Neu5Ac(a2-3)Gal(b1-4)GlcNAc(b1-3)Gal(b1-4)GlcNAc(b1-2)Man(a1-3)[Neu5Ac(a2-3)Gal(b1-4)GlcNAc(b1-3)Gal(b1-4)GlcNAc(b1-2)Man(a1-6)]Man(b1-4)GlcNAc(b1-4)GlcNAc
Procedure, shortened: as §1

[23] = target: Neu5Ac(a2-3)Gal(b1-4)GlcNAc(b1-3)Gal(b1-4)GlcNAc(b1-3)Gal(b1-4)GlcNAc
Procedure, shortened: as §1

[24] = target: Neu5Ac(a2-3)Gal(b1-4)GlcNAc(b1-3)Gal(b1-4)GlcNAc(b1-3)Gal(b1-4)GlcNAc(b1-2)Man(a1-3)[Neu5Ac(a2-3)Gal(b1-4)GlcNAc(b1-3)Gal(b1-4)GlcNAc(b1-3)Gal(b1-4)GlcNAc(b1-2)Man(a1-6)]GalNAc
Procedure, shortened: as §1

[25] = target: Neu5Ac(a2-3)Gal(b1-4)GlcNAc(b1-3)Gal(b1-4)GlcNAc(b1-3)GalNAc
Procedure, shortened: as §1

[26] = target: Neu5Ac(a2-3)Gal(b1-4)GlcNAc(b1-3)Gal(b1-4)GlcNAc(b1-3)[Neu5Ac(a2-3)Gal(b1-4)GlcNAc(b1-3)Gal(b1-4)GlcNAc(b1-6)]GalNAc
Procedure, shortened: as §1

[27] = target: Neu5Ac(a2-3)Gal(b1-4)GlcNAc(b1-3)Gal(b1-4)GlcNAc(b1-6)[Gal(b1-3)]GalNAc
Procedure, shortened: as §1

[28] = target: Neu5Ac(a2-3)Gal(b1-4)GlcNAc(b1-3)Gal(b1-4)[Fuc(a1-3)]GlcNAc
Procedure, shortened: as §1

[29] = target: Neu5Ac(a2-3)Gal(b1-4)GlcNAc(b1-3)GalNAc
Procedure, shortened: as §1

B1: CcfD (Bacteroides vulgatus), A6KYX8 (protein)
chain: MKYKNYFKSIIYLALGAFTLGSCEDFLDRQEDEKLTFDKIWESRNTTQQYWLNAMSFLPNENGSLQGDTEPYLGASDECTIAYDRQYRWINFGTWNPSQVPYYKMDHYYKGIRECNIFLQNVYKCSDPLVTKDQLDEWYWQTRFARAYYYFLMMRDYGPVFLLGDDLLDFTASTEELYRPRNTWDQCVNYVVSEMTQCAESGVVLQQSDLPAAKWGLATVGTCHAVISRLLLYSARPLFNGNKLYSTVKNPDAPDFPELSGVKLFPELDNTKWQKAAEAAKKLIDNPCYELYRAGNDNPYEDYYGVTHETWNKELIWTDRYNGLFSWGVGTVPTGVAGTAYGAVGPTQALVDAYAMNTGWYPITGYEADGTPIVEPLSGYELASELEKSSWIYPSGGWSNKADFEIEAPNMYKDREPRFYVTVFFGGNQWLHGNSATSISFAKGGNGNKSHDYPKSGYLCNRFYDHKLNSSEGQWGNITFPVFRLGEIYLNFIEAVLECKKNGVALDPSYEALAMEKWADLRKRAGLDPITSIYGQVSTEELIQLCRKERQIELAFERHRYFDTRTWMIATQTDNGKMYGMNTSCPLDAGMKGTETPDGFWERTAFETRVFQNKHYLYPFSQRELDRNKLLTQNYGW
glycan array binding signal (z-score) [1]: -0.795
glycan array binding signal (z-score) [2]: 0.979
glycan array binding signal (z-score) [3]: -0.297
glycan array binding signal (z-score) [4]: -0.205
glycan array binding signal (z-score) [5]: 0.099
glycan array binding signal (z-score) [6]: -0.393
glycan array binding signal (z-score) [7]: 0.303
glycan array binding signal (z-score) [8]: 0.303
glycan array binding signal (z-score) [9]: -0.581
glycan array binding signal (z-score) (Neu5Ac(a2-3)Gal(b1-4)Glc): -0.589
glycan array binding signal (z-score) [10]: -0.647
glycan array binding signal (z-score) [11]: 0.435
glycan array binding signal (z-score) [12]: -0.698
glycan array binding signal (z-score) [13]: -0.978
glycan array binding signal (z-score) [14]: 0.242
glycan array binding signal (z-score) [15]: -0.16
glycan array binding signal (z-score) [16]: -0.612
glycan array binding signal (z-score) [17]: -0.795
glycan array binding signal (z-score) [18]: -0.404
glycan array binding signal (z-score) [19]: 1.96
glycan array binding signal (z-score) [20]: 0.348
glycan array binding signal (z-score) [21]: -0.536
glycan array binding signal (z-score) [22]: -0.932
glycan array binding signal (z-score) [23]: -0.815
glycan array binding signal (z-score) [24]: -0.592
glycan array binding signal (z-score) [25]: -0.693
glycan array binding signal (z-score) [26]: -0.429
glycan array binding signal (z-score) [27]: -0.957
glycan array binding signal (z-score) [28]: -0.165
glycan array binding signal (z-score) [29]: -0.551
